Experimental data taken from patent EP0657455A1, “Epi-epibatidine derivatives, a process and intermediates for preparing them and epi-epibatidine and medicaments containing the epi-epibatidine derivatives and/or epi-epibatidine and the use of them” (priority 1993, dated 1995).

System: NMRI male mice
Assay: Hot plate test in mice
Settings: mouse, in vivo, sc
Experimental: Hot plate test in mice Method
A modification of method of Eddy et al. (1953) Eddy, N. B., Leimback D.: Synthetic analgesics II. Dithienylbutenyl and dithienylbutylamines. J. Pharmacol. Exp. Ther. 107 /1953/, 385 to 393 was used. NMRI male mice (20 to 25 g body weight) were dropped on a hot plate (56.0 ± 0.5°C) and the latency time elapsed until licking the forepaws was measured. The compounds were administered subcutaneously and 15, 30, 45 and 60 minutes later the reaction time was measured again. Animals were regarded as positive if they produced at least twice 2.5-fold reaction time extension as related to their control values.

Molecule CN1CC[C@]23c4c5ccc(O)c4O[C@H]2[C@@H](O)C=C[C@H]3[C@H]1C5.Cl [Reference substance A, Morphine-HCl] has an ED50 of 2.7 mg/kg s.c.
